Data as given in PubChem BioAssay AID1159584 (Peter MacCallum Cancer Centre, 2016)
In all, the deposit lists about 18,000 reagents; this is a random part of them. The numbers tell different reagents against one gene apart. Further read-outs or replicates are left out here. Not stated in the record: the amount of reagent, the time to read-out.

Assay: 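Genes that CDH1-null MCF10A cells selectively depend on to survive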 (primary screen)
System: human MCF10A breast epithelial cells, parental and CDH1-null
Reagent: siRNA against human genes
Measurement: 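ATP luminescence (CellTiter-Glo) viability per line relative to mean mock wells over all plates, and the ratio of CDH1-null to parental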
Direction: CDH1-null / parental viability ratio: higher = CDH1-null cells survive relatively better than parental

| gene | siRNA no. | CDH1-null / parental viability ratio |
| --- | --- | --- |
| SYTL2 | 1 | 2.05 |
| COX6B2 | 1 | 0.84 |
| APOL6 | 1 | 1.09 |
| C4orf51 | 1 | 0.89 |
| PPFIA1 | 1 | 1.46 |
| PGAP3 | 1 | 1.04 |
| FLCN | 1 | 1.39 |
| ZMYND12 | 1 | 1.09 |
| APOE | 1 | 1.05 |
| ACRV1 | 1 | 0.94 |
| UNC93B1 | 1 | 1.02 |
| CAMK1 | 1 | 0.92 |
| ZXDB | 1 | 0.7 |
| PPP2R3B | 1 | 1.72 |
| SLC38A3 | 1 | 0.91 |
| CACHD1 | 1 | 1.04 |
| UBALD1 | 1 | 1.07 |
| CCDC190 | 1 | 0.96 |
| TPO | 1 | 1.11 |
| UCHL3 | 1 | 1.12 |
| TMEM170A | 1 | 0.95 |
| TRPV1 | 1 | 1.22 |
| HOXA2 | 1 | 1.11 |
| UBE2K | 1 | 1.18 |
| CSAG2 | 1 | 1.11 |
| CSAG2 | 2 | 1.16 |
| PRR11 | 1 | 0.94 |
| TSC1 | 1 | 0.96 |
| CALB1 | 1 | 1.05 |
| NXT2 | 1 | 0.92 |
| N4BP2L1 | 1 | 1.16 |
| UPF3B | 1 | 0.99 |
| METTL17 | 1 | 0.95 |
| NUP88 | 1 | 1.19 |
| PSMC2 | 1 | 1.19 |
| CEACAM4 | 1 | 0.94 |
| SIL1 | 1 | 1.56 |
| E2F8 | 1 | 0.95 |
| F13B | 1 | 0.88 |
| KCNU1 | 1 | 1.45 |
| KLRC4 | 1 | 1.1 |
| SHB | 1 | 1.04 |
| TEX56P | 1 | 0.69 |
| PDZK1IP1 | 1 | 0.88 |
| HAVCR2 | 1 | 0.94 |
| CDRT15 | 1 | 0.79 |
| CTSH | 1 | 1.1 |
| FOXN2 | 1 | 1.05 |
| C1orf220 | 1 | 1 |
| TNFRSF21 | 1 | 1.16 |
| SFI1 | 1 | 0.98 |
| CYP2S1 | 1 | 0.91 |
| POLR1E | 1 | 0.8 |
| CDH23 | 1 | 1.41 |
| PURG | 1 | 1.07 |
| MDFIC | 1 | 1.34 |
| GABARAPL2 | 1 | 1.09 |
| PGBDF | 1 | 0.94 |
| BASP1 | 1 | 0.95 |
| UNC45B | 1 | 0.77 |
| CTBP1-DT | 1 | 1.13 |
| NCK2 | 1 | 0.98 |
| CCDC28A | 1 | 1.1 |
| IRS1 | 1 | 0.84 |
| ICE2 | 1 | 1.28 |
| DAAM2 | 1 | 0.94 |
| COL23A1 | 1 | 0.69 |
| NAIP | 1 | 1.05 |

Part of the list above, set out differently:
POLR1E
- CDH1-null / parental viability ratio: 0.8

CDH23
- CDH1-null / parental viability ratio: 1.41

PURG
- CDH1-null / parental viability ratio: 1.07

MDFIC
- CDH1-null / parental viability ratio: 1.34

GABARAPL2
- CDH1-null / parental viability ratio: 1.09

PGBDF
- CDH1-null / parental viability ratio: 0.94

BASP1
- CDH1-null / parental viability ratio: 0.95
